This note sets out measurements from patent US20220041999A1 (NEOGENE THERAPEUTICS B V, published 2022).

One test concerns the target T1, GCN4-mDHFRmt_B-2A.
T1 chain: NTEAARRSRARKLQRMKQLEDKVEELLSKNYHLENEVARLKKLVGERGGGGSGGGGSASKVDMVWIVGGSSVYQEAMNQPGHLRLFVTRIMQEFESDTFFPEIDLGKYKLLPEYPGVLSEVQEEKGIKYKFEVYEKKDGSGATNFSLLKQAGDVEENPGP
The test is described as follows: cell-based or functional assay.

The next test concerns the target T2, GCN4-mDHFRmt_B.
T2 chain: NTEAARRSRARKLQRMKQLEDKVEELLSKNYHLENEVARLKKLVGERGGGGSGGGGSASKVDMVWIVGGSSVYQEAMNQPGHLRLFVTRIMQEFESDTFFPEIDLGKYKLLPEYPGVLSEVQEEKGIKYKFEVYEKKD
The test is described as follows: cell-based or functional assay.

B1: GCN4-mDHFRmt_A-2A (other)
chain: NTEAARRSRARKLQRMKQLEDKVEELLSKNYHLENEVARLKKLVGERGGGGSGGGGSMVRPLNCIVAVSQNMGIGKNGDFPWPPLRNESKYFQRMTTTSSVEGKQNLVIMGRKTWFSIPEKNRPLKDRINIVLSRELKEPPRGAHFLAKSLDDALRLIEQPELGSGATNFSLLKQAGDVEENPGP
In the case of B1, in the test with GCN4-mDHFRmt_B-2A, the “fold enrichment of double transduced T cells (FACS), BC45, 50 nM MTX 4 days” value was 12 fold; the “fold enrichment of double transduced T cells (FACS), BC45, further 100 nM MTX 3 days, row 2” value is 29 fold; the “fold enrichment of double transduced T cells (FACS), BC45, further 100 nM MTX 3 days, row 3” value was found to be 138 fold; the “fold enrichment of double transduced T cells (FACS), BC46, 50 nM MTX 4 days” value is 5.9 fold. Further, in the test with GCN4-mDHFRmt_B-2A, the “fold enrichment of double transduced T cells (FACS), BC46, further 100 nM MTX 3 days, row 2” value is 5.7 fold and the “fold enrichment of double transduced T cells (FACS), BC46, further 100 nM MTX 3 days, row 3” value came to 26.1 fold.

B2: GCN4-mDHFRmt_A (other)
chain: NTEAARRSRARKLQRMKQLEDKVEELLSKNYHLENEVARLKKLVGERGGGGSGGGGSMVRPLNCIVAVSQNMGIGKNGDFPWPPLRNESKYFQRMTTTSSVEGKQNLVIMGRKTWFSIPEKNRPLKDRINIVLSRELKEPPRGAHFLAKSLDDALRLIEQPEL
On to B2, for which, in the test with GCN4-mDHFRmt_B, the “fold enrichment of double transduced T cells (FACS), BC45, 25 nM MTX 4 days” value worked out at 3.7 fold; the “fold enrichment of double transduced T cells (FACS), BC45, 50 nM MTX 4 days” value is 6.1 fold; the “fold enrichment of double transduced T cells (FACS), BC45, further 100 nM MTX 3 days, row 2” value was determined as 8.4 fold; the “fold enrichment of double transduced T cells (FACS), BC45, further 100 nM MTX 3 days, row 3” value is 9.7 fold. In the test with GCN4-mDHFRmt_B, the “fold enrichment of double transduced T cells (FACS), BC46, 25 nM MTX 4 days” value is 2.9 fold; the “fold enrichment of double transduced T cells (FACS), BC46, 50 nM MTX 4 days” value was found to be 5.2 fold; the “fold enrichment of double transduced T cells (FACS), BC46, further 100 nM MTX 3 days, row 2” value was 6 fold; the “fold enrichment of double transduced T cells (FACS), BC46, further 100 nM MTX 3 days, row 3” value is 8.1 fold.
